Patent publication US20140271766A1 (priority 2013, published 2014)

Settings: plasma norbuprenorphine; 2 implants; individual patient

norbuprenorphine
Cave Day 21 to removal: 109.9, 104.1, 100.0, 103.8, 76.8, 239.1 pg/ml

Only a part of the results on these compounds is given; other tests are left out. For part of its entries the source gives two or more results. This is not the full list of results. The source may hold further records. Values given together differ, and nothing given here explains why; they may come from other doses, times, organisms or constructs than stated.
